From article PMC9010301
Results are given in words; binding and its absence hold for the method and conditions named. Some entries that bind do so weakly or less than the wild type. Each block holds one binder with its values, some of them ahead of it.

Experiments:
Assay in all cases: cryo-EM structure; purified Rad24-RFC 1.8 μM, 9–1-1 clamp 2.2 μM, double tailed DNA (5′- and 3′-recessed junctions) 2.7 μM, 0.5 mM ATPγS, 5 mM MgAcetate; ice-water bath 30 min; two conformations (clamp closed, clamp open) at 3.2 Å; both purified
[1] = target: T1, Rad17 (subunit of the S.c. 9–1-1 clamp) (S. cerevisiae) (UniProt P48581)
T1 sequence: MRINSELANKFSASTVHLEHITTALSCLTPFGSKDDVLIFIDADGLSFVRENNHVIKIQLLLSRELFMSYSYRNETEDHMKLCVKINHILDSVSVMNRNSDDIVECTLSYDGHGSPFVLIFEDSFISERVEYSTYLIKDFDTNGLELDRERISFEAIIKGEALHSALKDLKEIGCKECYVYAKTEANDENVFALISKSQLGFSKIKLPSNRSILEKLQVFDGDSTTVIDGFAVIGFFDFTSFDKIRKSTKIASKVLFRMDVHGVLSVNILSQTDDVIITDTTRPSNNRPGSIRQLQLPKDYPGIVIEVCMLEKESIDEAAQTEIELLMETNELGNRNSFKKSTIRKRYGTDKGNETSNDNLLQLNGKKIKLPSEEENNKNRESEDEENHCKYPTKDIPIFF

[2] = target: T2, Rfc2 (subunit of S.c. Rad24-RFC) (S. cerevisiae) (UniProt P40348)
T2 sequence: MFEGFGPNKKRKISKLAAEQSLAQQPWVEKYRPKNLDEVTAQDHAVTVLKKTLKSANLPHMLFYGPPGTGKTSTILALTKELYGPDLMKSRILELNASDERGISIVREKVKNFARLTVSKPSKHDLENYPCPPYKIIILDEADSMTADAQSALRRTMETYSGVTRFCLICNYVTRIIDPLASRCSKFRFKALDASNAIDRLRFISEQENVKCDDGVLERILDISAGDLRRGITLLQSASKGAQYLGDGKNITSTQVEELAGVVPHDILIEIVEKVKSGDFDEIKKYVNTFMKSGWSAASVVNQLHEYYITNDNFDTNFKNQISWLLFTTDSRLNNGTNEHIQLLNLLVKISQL

[3] = target: T3, Ddc1 (subunit of the S.c. 9–1-1 clamp) (S. cerevisiae) (UniProt Q08949)
T3 sequence: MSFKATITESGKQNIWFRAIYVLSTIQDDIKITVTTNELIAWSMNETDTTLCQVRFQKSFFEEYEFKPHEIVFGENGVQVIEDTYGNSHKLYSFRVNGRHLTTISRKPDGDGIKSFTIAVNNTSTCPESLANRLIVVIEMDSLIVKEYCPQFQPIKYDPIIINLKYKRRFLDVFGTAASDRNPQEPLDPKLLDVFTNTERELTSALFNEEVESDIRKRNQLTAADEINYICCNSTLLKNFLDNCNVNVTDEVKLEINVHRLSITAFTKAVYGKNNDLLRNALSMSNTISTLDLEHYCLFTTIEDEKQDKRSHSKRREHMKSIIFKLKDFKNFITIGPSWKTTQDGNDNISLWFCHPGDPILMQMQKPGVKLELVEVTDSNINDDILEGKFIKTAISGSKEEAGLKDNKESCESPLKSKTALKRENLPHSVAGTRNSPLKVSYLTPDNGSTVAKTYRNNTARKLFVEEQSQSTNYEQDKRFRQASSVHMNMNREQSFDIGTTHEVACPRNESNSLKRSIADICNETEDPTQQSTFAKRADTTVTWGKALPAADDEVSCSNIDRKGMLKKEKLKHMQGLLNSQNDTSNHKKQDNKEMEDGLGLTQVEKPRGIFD

[4] = target: T4, Rfc4 (subunit of S.c. Rad24-RFC) (S. cerevisiae) (UniProt P40339)
T4 sequence: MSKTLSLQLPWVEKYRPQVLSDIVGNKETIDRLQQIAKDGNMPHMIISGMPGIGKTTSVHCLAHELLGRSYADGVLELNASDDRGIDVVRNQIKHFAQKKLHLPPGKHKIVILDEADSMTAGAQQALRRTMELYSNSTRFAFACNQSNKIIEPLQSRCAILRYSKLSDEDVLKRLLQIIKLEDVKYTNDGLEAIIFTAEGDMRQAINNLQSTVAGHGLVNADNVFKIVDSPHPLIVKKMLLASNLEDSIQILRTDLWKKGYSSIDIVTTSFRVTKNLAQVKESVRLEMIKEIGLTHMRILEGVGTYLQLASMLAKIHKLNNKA

[5] = target: T5, Rfc5 (subunit of S.c. Rad24-RFC) (S. cerevisiae) (UniProt P38251)
T5 sequence: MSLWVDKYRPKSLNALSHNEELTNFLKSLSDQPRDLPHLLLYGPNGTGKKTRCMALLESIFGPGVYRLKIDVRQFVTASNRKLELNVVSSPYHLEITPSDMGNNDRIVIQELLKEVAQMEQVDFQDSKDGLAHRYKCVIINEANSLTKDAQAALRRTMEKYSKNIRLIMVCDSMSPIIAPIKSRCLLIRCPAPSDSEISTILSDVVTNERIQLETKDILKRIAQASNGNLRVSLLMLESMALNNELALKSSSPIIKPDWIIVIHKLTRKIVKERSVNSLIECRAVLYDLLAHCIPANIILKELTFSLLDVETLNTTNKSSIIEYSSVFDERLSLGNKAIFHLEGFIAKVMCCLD

[6] = target: T6, Rfc3 (subunit of S.c. Rad24-RFC) (S. cerevisiae) (UniProt P38629)
T6 sequence: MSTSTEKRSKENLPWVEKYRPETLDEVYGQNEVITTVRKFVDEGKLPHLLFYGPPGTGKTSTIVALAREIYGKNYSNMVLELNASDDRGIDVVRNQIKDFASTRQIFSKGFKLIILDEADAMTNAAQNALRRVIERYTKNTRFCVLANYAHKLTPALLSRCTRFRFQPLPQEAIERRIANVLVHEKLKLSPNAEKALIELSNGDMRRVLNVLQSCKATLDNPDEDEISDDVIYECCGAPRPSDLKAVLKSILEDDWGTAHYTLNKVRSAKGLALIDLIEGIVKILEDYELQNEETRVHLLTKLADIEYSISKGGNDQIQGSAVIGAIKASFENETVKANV

[7] = target: T7, Rad24 (subunit of S.c. Rad24-RFC) (S. cerevisiae) (UniProt P32641)
T7 sequence: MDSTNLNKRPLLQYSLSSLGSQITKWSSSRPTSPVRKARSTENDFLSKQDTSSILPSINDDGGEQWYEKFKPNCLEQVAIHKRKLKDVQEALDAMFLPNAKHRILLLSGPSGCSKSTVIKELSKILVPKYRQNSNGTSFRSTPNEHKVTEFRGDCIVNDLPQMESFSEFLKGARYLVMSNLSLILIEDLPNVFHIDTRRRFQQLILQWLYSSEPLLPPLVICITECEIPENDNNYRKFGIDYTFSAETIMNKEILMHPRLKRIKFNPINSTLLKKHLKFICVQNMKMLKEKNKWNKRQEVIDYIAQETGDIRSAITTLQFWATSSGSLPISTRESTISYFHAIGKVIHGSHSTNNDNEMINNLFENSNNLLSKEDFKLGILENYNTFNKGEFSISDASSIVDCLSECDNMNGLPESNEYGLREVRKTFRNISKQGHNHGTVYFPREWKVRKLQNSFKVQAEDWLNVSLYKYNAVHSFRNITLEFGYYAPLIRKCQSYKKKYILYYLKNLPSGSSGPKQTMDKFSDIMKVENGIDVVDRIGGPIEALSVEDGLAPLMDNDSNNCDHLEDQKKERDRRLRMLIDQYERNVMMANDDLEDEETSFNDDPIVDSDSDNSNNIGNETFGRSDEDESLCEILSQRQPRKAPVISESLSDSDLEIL

binding [1]: binds
binding [2]: binds
B1: Rfc3 (subunit of S.c. Rad24-RFC) (protein, UniProt P38629 1-340)
chain: MSTSTEKRSKENLPWVEKYRPETLDEVYGQNEVITTVRKFVDEGKLPHLLFYGPPGTGKTSTIVALAREIYGKNYSNMVLELNASDDRGIDVVRNQIKDFASTRQIFSKGFKLIILDEADAMTNAAQNALRRVIERYTKNTRFCVLANYAHKLTPALLSRCTRFRFQPLPQEAIERRIANVLVHEKLKLSPNAEKALIELSNGDMRRVLNVLQSCKATLDNPDEDEISDDVIYECCGAPRPSDLKAVLKSILEDDWGTAHYTLNKVRSAKGLALIDLIEGIVKILEDYELQNEETRVHLLTKLADIEYSISKGGNDQIQGSAVIGAIKASFENETVKANV

binding [3]: binds
binding [4]: binds
B2: Rad24 (subunit of S.c. Rad24-RFC) (protein, UniProt P32641 1-659)
chain: MDSTNLNKRPLLQYSLSSLGSQITKWSSSRPTSPVRKARSTENDFLSKQDTSSILPSINDDGGEQWYEKFKPNCLEQVAIHKRKLKDVQEALDAMFLPNAKHRILLLSGPSGCSKSTVIKELSKILVPKYRQNSNGTSFRSTPNEHKVTEFRGDCIVNDLPQMESFSEFLKGARYLVMSNLSLILIEDLPNVFHIDTRRRFQQLILQWLYSSEPLLPPLVICITECEIPENDNNYRKFGIDYTFSAETIMNKEILMHPRLKRIKFNPINSTLLKKHLKFICVQNMKMLKEKNKWNKRQEVIDYIAQETGDIRSAITTLQFWATSSGSLPISTRESTISYFHAIGKVIHGSHSTNNDNEMINNLFENSNNLLSKEDFKLGILENYNTFNKGEFSISDASSIVDCLSECDNMNGLPESNEYGLREVRKTFRNISKQGHNHGTVYFPREWKVRKLQNSFKVQAEDWLNVSLYKYNAVHSFRNITLEFGYYAPLIRKCQSYKKKYILYYLKNLPSGSSGPKQTMDKFSDIMKVENGIDVVDRIGGPIEALSVEDGLAPLMDNDSNNCDHLEDQKKERDRRLRMLIDQYERNVMMANDDLEDEETSFNDDPIVDSDSDNSNNIGNETFGRSDEDESLCEILSQRQPRKAPVISESLSDSDLEIL

binding [3]: binds
binding [5]: binds
B3: Rfc2 (subunit of S.c. Rad24-RFC) (protein, UniProt P40348 1-353)
chain: MFEGFGPNKKRKISKLAAEQSLAQQPWVEKYRPKNLDEVTAQDHAVTVLKKTLKSANLPHMLFYGPPGTGKTSTILALTKELYGPDLMKSRILELNASDERGISIVREKVKNFARLTVSKPSKHDLENYPCPPYKIIILDEADSMTADAQSALRRTMETYSGVTRFCLICNYVTRIIDPLASRCSKFRFKALDASNAIDRLRFISEQENVKCDDGVLERILDISAGDLRRGITLLQSASKGAQYLGDGKNITSTQVEELAGVVPHDILIEIVEKVKSGDFDEIKKYVNTFMKSGWSAASVVNQLHEYYITNDNFDTNFKNQISWLLFTTDSRLNNGTNEHIQLLNLLVKISQL

binding [6]: binds
binding [1]: binds
B4: Rfc4 (subunit of S.c. Rad24-RFC) (protein, UniProt P40339 1-323)
chain: MSKTLSLQLPWVEKYRPQVLSDIVGNKETIDRLQQIAKDGNMPHMIISGMPGIGKTTSVHCLAHELLGRSYADGVLELNASDDRGIDVVRNQIKHFAQKKLHLPPGKHKIVILDEADSMTAGAQQALRRTMELYSNSTRFAFACNQSNKIIEPLQSRCAILRYSKLSDEDVLKRLLQIIKLEDVKYTNDGLEAIIFTAEGDMRQAINNLQSTVAGHGLVNADNVFKIVDSPHPLIVKKMLLASNLEDSIQILRTDLWKKGYSSIDIVTTSFRVTKNLAQVKESVRLEMIKEIGLTHMRILEGVGTYLQLASMLAKIHKLNNKA

binding [7]: binds
B5: Rfc5 (subunit of S.c. Rad24-RFC) (protein, UniProt P38251 1-354)
chain: MSLWVDKYRPKSLNALSHNEELTNFLKSLSDQPRDLPHLLLYGPNGTGKKTRCMALLESIFGPGVYRLKIDVRQFVTASNRKLELNVVSSPYHLEITPSDMGNNDRIVIQELLKEVAQMEQVDFQDSKDGLAHRYKCVIINEANSLTKDAQAALRRTMEKYSKNIRLIMVCDSMSPIIAPIKSRCLLIRCPAPSDSEISTILSDVVTNERIQLETKDILKRIAQASNGNLRVSLLMLESMALNNELALKSSSPIIKPDWIIVIHKLTRKIVKERSVNSLIECRAVLYDLLAHCIPANIILKELTFSLLDVETLNTTNKSSIIEYSSVFDERLSLGNKAIFHLEGFIAKVMCCLD
